# From PubChem BioAssay AID493014 (National Center for Advancing Translational Sciences (NCATS), 2011)
# The list shows a part of the results. Further columns of the screen follow, without active or inactive calls. Most of these compounds were active or inconclusive in the main read-out, so they are no random draw. Words in brackets tell the shape of the fitted curve; partial curves, single points and poor fits give uncertain potencies.
# Assay: qHTS Assay to Find Inhibitors of Chronic Active B-Cell Receptor Signaling
# Conditions: ABC-DLBCL IkBa-CBG/CBR reporter, luminescence ratio (green luciferase fused to IkBa over red control in TMD8 lymphoma cells), 4 h
# How it was run: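 TMD8 human ABC-DLBCL cells with doxycycline-inducible IκBα–green luciferase fusion and unfused red luciferase, in 0.5% FBS medium; compounds up to 46 uM, 4 h at 37C. Green/red luminescence ratio, filter-overlap corrected, fitted to concentration-response curves.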
# [1] = measured here: CBR red luminescence, cell number
# [2] = measured here: IkBa-CBG green luminescence
Compound,AC50 [1],AC50 [2]
Cc1ccc(Nc2cc(C)nc(-c3ccccc3O)n2)cc1,"8.2 µM [falling, single point]",–
Cc1ccc2nc(/C(C#N)=C\c3cc(O)ccc3[N+](=O)[O-])[nH]c2c1,"2.82 µM [falling, partial curve, poor fit]",–
Cc1nnc(NC(=O)c2cc(S(=O)(=O)N3CCCCC3)ccc2Cl)s1,"25.1 µM [falling, single point]",–
Cc1csc(NC(=O)Nc2cccc(Cl)c2)n1,"16.4 µM [falling, single point]",–
CC(C)(C)c1ccc2c(c1)C(=O)c1ccccc1C2=O,"10.3 µM [rising, partial curve, poor fit]",–
O=C1c2ccccc2-c2nc3ccccc3n21,"8.91 µM [falling, single point]",–
CN(C)c1ccc(C(CN)c2c[nH]c3ccccc23)cc1 (centres undefined),"35.5 µM [falling, single point]",–
COc1ccc(C(=O)NCc2ccc3c(c2)CCN3C(=O)c2cccc(C)c2)cc1OC,"15.8 µM [falling, single point]",–
O=C(NC(=S)Nc1ccc(N2CCN(C(=O)c3ccccc3)CC2)cc1)c1cccs1,"7.08 µM [falling, full curve, poor fit]",–
N/C(=N\N=C\c1ccc(O)c(O)c1)c1nonc1N,"14.1 µM [falling, single point]",–
CCCOc1ccc(C2NC(=O)NC(c3ccccc3)=C2C(C)=O)cc1OCC (centres undefined),"0.259 µM [falling, full curve, poor fit]",–
O=C(COC(=O)c1ccc(F)c(S(=O)(=O)N2CCOCC2)c1)NCc1ccccc1,"3.66 µM [rising, full curve, poor fit]",–
Nc1[nH]c(N=NC(=O)c2ccccc2O)c2ccccc12,"2.91 µM [falling, full curve]",–
O=C(Nc1ccncc1)c1ccccc1F,"20 µM [falling, single point]",–
CN(C)c1ccc(C(=O)Nc2nc3c(s2)CCCC3)cc1,"6.51 µM [falling, full curve]",–
COc1ccc2[nH]c(=O)c3c(c2c1)OC(C)(C)C=C3,"11.2 µM [falling, partial curve]","8.91 µM [rising, partial curve, poor fit]"
Cc1nn(-c2ccccc2)c(C)c1C(=O)NCc1ccc(S(N)(=O)=O)cc1,"14.1 µM [falling, single point]",–
CCCCCNC(=O)c1cccc(S(=O)(=O)N2CC3(C)CC2CC(C)(C)C3)c1 (centres undefined),"20.6 µM [falling, single point]",–
CC(=O)Oc1ccc(N2C(=O)C3C4C=CC(CO)(O4)C3C2=O)cc1 (centres undefined),"20.6 µM [falling, single point]","14.6 µM [rising, partial curve, poor fit]"
O=C(COc1ccccc1F)Nc1ccc2c(c1)OCCO2,"35.5 µM [falling, single point]",–
CCOCC(O)CNC(=O)c1ccc(OC2CCN(C(=O)c3cccnc3)CC2)cc1 (centres undefined),"11.2 µM [rising, partial curve]",–
O=C(NCc1ccco1)c1cc(-c2ccccc2)on1,"10.3 µM [falling, partial curve]",–

Compound,AC50 [1],AC50 [2]
CCCC(=O)NNC(=O)CCC(=O)Nc1ccccc1Cl,"7.08 µM [rising, full curve, poor fit]",–
CN1c2ccc(Cl)cc2C(=O)NC1C1CC=CCC1 (centres undefined),"1.41 µM [rising, partial curve]",–
O=C(Nc1ccc(Cl)cc1)Nc1ccc(Cl)c(Cl)c1,"29.1 µM [falling, single point]",–
O=C(NCc1ccccc1F)C1CCCN1C(=O)Nc1cccc(F)c1 (centres undefined),"3.98 µM [rising, partial curve]",–
CCN(CC)c1ccc(NC(=O)CN2CCN(CC(=O)Nc3ccccc3F)CC2)cc1,–,"16.4 µM [falling, partial curve, poor fit]"
O=C(CSCc1ccccc1Cl)NCc1ccc(Cl)c(Cl)c1,"1.58 µM [rising, partial curve, poor fit]",–
COc1ccc(OCC(O)Cn2c(Br)nc3c2c(=O)[nH]c(=O)n3C)cc1 (centres undefined),"32.6 µM [rising, partial curve, poor fit]","29.1 µM [falling, single point]"
C=CCNC(=S)NNC(=O)c1ccc(OCC(C)C)cc1,"0.13 µM [falling, full curve, poor fit]",–
CCOc1cc(/C=N/NC(=O)c2cccnc2)ccc1OC(=O)c1ccco1,"0.501 µM [falling, partial curve, poor fit]",–
COc1ccc(NS(=O)(=O)c2ccc(NC(=S)NC(=O)CC(C)C)cc2)cc1,"0.411 µM [rising, full curve, poor fit]",–
O=C(Nc1ccc(SC(F)F)cc1)C1=COCCO1,"2.31 µM [rising, partial curve, poor fit]",–
Cc1ccccc1/C=N/NC(=O)Cc1ccc(Cl)cc1,"3.55 µM [rising, full curve, poor fit]",–
CC(=O)N1CCN(c2nc3c(C)ccc(Cl)c3s2)CC1,"5.62 µM [rising, single point]",–
Cc1ccc2nc(N3C(=O)C(O)=C(C(=O)c4ccc(C)o4)C3c3cccc(O)c3)sc2c1 (centres undefined),"0.447 µM [falling, full curve, poor fit]",–
O=C(CCn1c(=O)oc2ccc(Cl)cc21)N1CCN(c2ccccc2)CC1,"5.62 µM [rising, single point]",–
Nc1ccc(/C=C/c2ccc3ncccc3c2)cc1,"35.5 µM [falling, single point]",–
O=C1C=C(c2ccccc2)C(=O)N1Nc1ccccc1,"23.1 µM [rising, partial curve, poor fit]","25.9 µM [falling, single point]"
O=C(NCC(=O)N1CCN(c2ccccc2O)CC1)c1cccs1,"29.1 µM [falling, single point]",–
NNC(=O)c1ccc(Oc2cc(Cl)cc(Cl)c2)o1,"8.91 µM [falling, partial curve, poor fit]",–
CCC(C)Sc1nc2c(cnn2-c2ccc(C)c(C)c2)c(=O)[nH]1 (centres undefined),"13 µM [rising, partial curve, poor fit]",–
Cc1nn(-c2ccccc2)c(C)c1CCC(=O)O,"8.91 µM [falling, partial curve]",–
CCOC(=O)C1CCCN(C(=O)CCc2nc3sc4c(c3c(=O)[nH]2)CCCC4)C1 (centres undefined),"0.58 µM [rising, full curve, poor fit]",–

# Among those listed so far, these contain a thiophene ring, fused or not.
Compound,AC50 [1],AC50 [2]
O=C(NC(=S)Nc1ccc(N2CCN(C(=O)c3ccccc3)CC2)cc1)c1cccs1,"7.08 µM [falling, full curve, poor fit]",–
O=C(NCC(=O)N1CCN(c2ccccc2O)CC1)c1cccs1,"29.1 µM [falling, single point]",–
CCOC(=O)C1CCCN(C(=O)CCc2nc3sc4c(c3c(=O)[nH]2)CCCC4)C1 (centres undefined),"0.58 µM [rising, full curve, poor fit]",–

# (further entries)

Compound,AC50 [1],AC50 [2]
COC(=O)c1ccccc1S(=O)(=O)Oc1ccc(-c2ccc(C(=O)O)cc2)cc1,"2 µM [falling, partial curve]",–
CCC(=O)Nc1nnc(SCC(=O)N2c3ccccc3CC2C)s1 (centres undefined),"23.1 µM [rising, partial curve, poor fit]",–
CC1CN(C(=O)CCC(=O)N2CCOCC2)c2ccccc2O1 (centres undefined),"1.58 µM [falling, full curve]",–
NNC(=O)c1cc2ccccc2cc1NS(=O)(=O)c1ccccc1,"20 µM [rising, partial curve, poor fit]",–
Cc1cc(C)nc(SCc2ccc(C(=O)N/N=C3\CC(C)CC(C)(C)C3)cc2)n1 (centres undefined),"23.1 µM [rising, single point]",–
COc1cc2c(C#N)c(N3CCCCC3)nc(N)c2c(N)n1,"2 µM [falling, partial curve, poor fit]",–
O=C(Nc1cccc(NC(=O)c2cccs2)c1)c1ccc(F)cc1,"35.5 µM [falling, single point]",–
O=C(O)CCC(=O)N1CCc2cc(S(=O)(=O)N3CCC(Cc4ccccc4)CC3)ccc21,"20.6 µM [falling, partial curve, poor fit]",–
O=C(CSC1=NS(=O)(=O)c2ccccc2N1)c1ccccc1,"4.61 µM [falling, partial curve]",–
O=C(O)c1ccc(N/N=C/c2cc3c(cc2[N+](=O)[O-])OCO3)cc1,"0.0891 µM [falling, full curve, poor fit]","3.16 µM [rising, full curve, poor fit]"
C/C(CC(=O)Nc1ccc2ccccc2c1)=N\NC(=O)c1ccc(O)c(O)c1,"2.51 µM [falling, full curve, poor fit]",–
Cn1nc(C(=O)Nc2cc(Cl)ccc2N2CCCC2)c2ccccc2c1=O,"7.31 µM [rising, partial curve, poor fit]",–
COc1ccccc1NC(=O)NCc1ccc(C)n1C,"5.62 µM [rising, single point]",–
CCN(Cc1ccccc1)C(=O)c1[nH]c2ccc(OC)cc2c1C,"5.01 µM [rising, partial curve, poor fit]",–
COc1ccccc1CNC(=O)C(=O)NCC(c1ccco1)N1CCOCC1 (centres undefined),"12.6 µM [falling, partial curve, poor fit]",–
CSc1nc(N)n2nc(-c3ccccc3)cc2n1,"5.01 µM [falling, partial curve, poor fit]",–
CCN(CC(=O)NCc1ccccc1Cl)CC(=O)Nc1c(F)cccc1F,"0.794 µM [rising, full curve, poor fit]",–
CCCOc1ccc(C2=NNC(=O)CC2)cc1,"23.1 µM [rising, partial curve]",–
COc1cccc(/C=N/NC(=O)c2cc(-c3cccn3C)n[nH]2)c1,"5.01 µM [falling, partial curve, poor fit]",–
Cc1nc(NC(=O)CSc2nnc(C3CC3)n2C)sc1C,"5.01 µM [falling, partial curve]",–

# Two consecutive compounds already listed:
Compound,AC50 [1],AC50 [2]
CCC(=O)Nc1nnc(SCC(=O)N2c3ccccc3CC2C)s1 (centres undefined),"23.1 µM [rising, partial curve, poor fit]",–
CC1CN(C(=O)CCC(=O)N2CCOCC2)c2ccccc2O1 (centres undefined),"1.58 µM [falling, full curve]",–
